# Test results taken from paper PMC12040169 (PLOS Biology, 2025).
# This is one part of the list.
# Tested on: T1, CTL2-GFP (C. trachomatis L2/434/Bu, GFP-expressing)
# T1 construct: L2/434/Bu, GFP-expressing
# Parameters: species or system HeLa; Intracellular C. trachomatis growth in HeLa cells, bulk GFP fluorescence relative to DMSO
# Details: bulk GFP, single well; 28.5 h, 10 µM; inhibitor
row,SMILES,% of control remaining
1,Cc1ccc(C(=O)NCc2cccnc2)c(N2CCOCC2)n1 [CBK076400],147.661%
2,CCOC(=O)c1cn(CC)c2cc(N3CCOCC3)c(F)cc2c1=O [CBK307142],136.461%
3,CC(Sc1nc(-c2ccccc2F)n[nH]1)C(=O)N1CCNC1=O (stereo not shown) [CBK295594],142.567%
4,COc1ccc(Nc2n[nH]c3nc(C)cc(=O)n23)cc1 [CBK288117],125.904%
5,CN1CC[C@]2(c3ccc4c(c3)nnn4C)CC[C@@H](NC(=O)Nc3cc(F)cc(C(F)(F)F)c3)C[C@H]12 [CBK067800],119.928%
6,CSc1cccc(NC(=S)N2CCCCC2CCN2CCOCC2)c1 (stereo not shown) [CBK028765],96.4463%
7,C(=C\c1ccccc1)/CN1CCC(Cc2ccccc2)CC1 [CBK126384],140.973%
8,O=C(O)Cn1nnc(-c2ccc(C(=O)O)cc2)n1 [CBK267926],124.253%
9,O=C(Nc1ccc(F)cc1Cl)c1cnc2n(c1=O)CCS2 [CBK287382],139.539%
10,O=C(Nc1ccc([C@@H](O)[C@H]2COCC(=O)N2Cc2ccc(F)cc2)cc1)c1ccccc1 [CBK289061],120.623%
11,Cc1ccccc1C(=O)NCCNC(=O)c1cccnc1 [CBK269222],131.784%
12,O=C(C1=C(O)C(=O)N(CCN2CCOCC2)C1c1ccco1)c1cccs1 (stereo not shown) [CBK264506],100%
13,COc1ccc([C@@]23CC[C@@H](NC(=O)Nc4ccc(F)c(F)c4)C[C@@H]2N(C)CC3)cc1O [CBK051630],94.1808%
14,CC(C)NCC(O)Cn1c2c(c3ccccc31)CCc1c-2cnn1-c1ccccc1 (stereo not shown) [CBK261107],42.4972%
15,O=C(NCc1cccs1)c1ccccc1Nc1cccc(C(F)(F)F)c1 [CBK149557],48.4053%
16,O=C(NCc1cccs1)C1CCCN1c1nc(O)cc(C(F)(F)F)n1 (stereo not shown) [CBK004299],103.902%
17,COC(=O)[C@@H]1Cc2ncn(C)c2CN1S(=O)(=O)c1ccc(C#N)cc1 [CBK288993],133.386%
18,Cn1cc(NC(=O)CCn2c(C(F)F)cc3cccnc32)cn1 [CBK284740],119.045%
19,Cn1c(SCC(=O)NCCCN2CCOCC2)nc2ccccc2c1=O [CBK287607],111.826%
20,O=C(CC1SC(NC2CCCCCC2)=NC1=O)NCc1c(F)cccc1Cl (stereo not shown) [CBK067656],120.482%
21,CCCC(=O)c1ccc(S(=O)(=O)N2CCCN(Cc3cccnc3N3CCOCC3)CC2)cc1 [CBK062900],132.08%
22,CC(Oc1ccccc1)c1nnc(SCC(=O)Nc2ccc(Br)cc2F)n1C (stereo not shown) [CBK266364],91.3265%
23,CCn1c(C)nnc1SCCNc1cc(C)nc2ccnn12 [CBK306607],70.4045%
24,CCN1CCN(C(=O)C2CCCCC2C(=O)O)CC1 (stereo not shown) [CBK270337],109.272%
25,c1ccc2c(c1)CCN2c1ncnc2c1nc1n2CCCCC1 [CBK291119],118.909%
26,COc1ccc(C(=O)C2=C(O)C(=O)N(CCN(C)C)C2c2cccc([N+](=O)[O-])c2)cc1Cl (stereo not shown) [CBK266474],158.996%

row,SMILES,% of control remaining
1,COc1ccc(Oc2ncnc3c2[nH]c2ccccc23)cc1 [CBK291254],140.311%
2,CCOC(=O)c1ccc(-n2sc3ccccc3c2=O)cc1 [CBK115552],88.5722%
3,O=c1[nH]c2ncc(-c3ccco3)nc2n1Cc1ccccn1 [CBK064349],117.423%
4,C[C@@H]1CN(C)CCN1c1nccnc1OCCOc1cccnc1OCCCCCN(C)C [CBK051566],122.156%
5,O=C1NC[C@@H](CCC(=O)N2CCCCC2)N2C[C@@H](NS(=O)(=O)c3ccccc3)C[C@@H]12 [CBK289012],142.446%
6,OC(COCc1ccc2c(c1)OCO2)CN1CCN(c2ccccn2)CC1 (stereo not shown) [CBK278246C],114.609%
7,Cn1c(=O)n(C)c2cc(CNC(=O)C3NCCc4[nH]cnc43)ccc21 (stereo not shown) [CBK307274],99.9153%
8,N#CC(C(N)=O)C(c1ccc(Br)cc1)c1c(-c2ccccc2)nn(-c2nc(-c3ccccc3)cs2)c1O (stereo not shown) [CBK262697],87.0091%
9,CN1CCN(CCC(=O)N/N=C/c2ccc(O)cc2O)CC1 [CBK262849],112.581%
10,C=CCOCc1cc(O)n2nc(SC)c(C(N)=O)c2n1 [CBK008592],93.2714%
11,CC(=O)Nc1cccc(C(=O)N2CCCC2c2ccncc2)c1 (stereo not shown) [CBK305080],120.897%
12,O=C(Cn1cc(Br)ccc1=O)NC1CCN(Cc2ccccn2)CC1 [CBK305686],110.291%
13,CNC(=O)C1(Cc2ccccc2-c2ccccc2C)CCN(C(=O)Cc2ccccc2)CC1 [CBK285901],97.8902%
14,COc1cc(C2(O)CCN(Cc3ccccc3)C2)ccc1OCc1ccccc1 (stereo not shown) [CBK045620],54.5171%
15,CC1CCN(Cc2c(O)ccc3c(=O)c(-c4cccc(Cl)c4)c(C(F)(F)F)oc23)CC1 [CBK266258],194.119%
16,O=C(c1ccco1)N1CCC[C@@H]1[C@@H](O)c1cccs1 [CBK284291],103.6%
17,N#Cc1ccccc1CSc1nnc(-c2ccco2)n1-c1ccccc1 [CBK267270],111.557%
18,Cc1ccsc1C(=O)Nc1ncn(CC(=O)N2CCCCCC2)n1 [CBK304192],61.2708%
19,COc1ccc(C(=O)N2CC[C@@H]3NC(=O)[C@H]4C[C@H](NC(=O)C5CCC5)CN4C(=O)[C@H]32)cc1 [CBK289268],82.5517%
20,Cc1ccc(-c2cc(C(=O)NCc3cccnc3)c3ccccc3n2)cc1C [CBK265402],100%
21,COc1cc(C(=O)NC(C)C(=O)NN)cc(OC)c1OC (stereo not shown) [CBK262609],118.856%
22,COc1cc(Nc2cc(-n3nc(C)cc3C)ncn2)cc(OC)c1OC [CBK288594],136.256%
23,CCOC(=O)CSC/C(=N/Nc1ccccc1)c1cccs1 [CBK006956],96.0387%
24,Cc1cc(C)n(-c2nc3ccccc3nc2N2CCN(S(=O)(=O)c3ccc4ccccc4c3)CC2)n1 [CBK269134],100.118%
25,CC(C)(CNS(=O)(=O)c1ccc(Cl)cc1)OCc1ccccc1 [CBK262088],109.179%
26,Cc1ccc2nc(O)cc(C(=O)OCC(=O)c3cccc([N+](=O)[O-])c3)c2c1 [CBK265115],100%

# Reformatted as tab-separated lines: entries from further up.
row	SMILES	% of control remaining
24	CCN1CCN(C(=O)C2CCCCC2C(=O)O)CC1 (stereo not shown) [CBK270337]	109.272%
25	c1ccc2c(c1)CCN2c1ncnc2c1nc1n2CCCCC1 [CBK291119]	118.909%

# Going on with the list.

row,SMILES,% of control remaining
1,CC(C)c1ccc(S(=O)(=O)NCC(C)(C)CO)cc1 [CBK043547],125.931%
2,CCCCC(=O)NC(c1ccc(Cl)cc1)c1cc([N+](=O)[O-])c2cccnc2c1O (stereo not shown) [CBK293938],104.517%
3,Cc1ccc(NC(=O)CN(c2ccccc2)S(=O)(=O)c2ccccc2[N+](=O)[O-])cc1C [CBK262345],101.176%
4,COc1ccc2cc(C(=O)NC3CCCN(C)C3)n(C)c2c1 (stereo not shown) [CBK282541],125.112%
5,c1coc(COc2cncc(N3CCNCC3)n2)c1 [CBK013393],136.411%
6,O=C(Nc1c(F)cccc1F)n1ccc2c(N3CCNCC3)cccc21 [CBK003745C],101.712%
7,O=C(NC1CCS(=O)(=O)C1)/C(=C\c1ccccc1)NC(=O)c1ccc([N+](=O)[O-])cc1 (stereo not shown) [CBK261034],100%
8,O=C(Cn1c(=O)n(Cc2cccs2)c2ncccc21)NCC1CC1 [CBK283899],124.812%
9,CC(C)(C)OC(=O)NCC1(CC(=O)O)CCCCC1 [CBK287030],113.79%
10,O=C(c1cccnc1)N1CCN(Cc2cccc(Oc3ccccc3)c2)CC1 [CBK263326G],108.742%
11,CCn1cc(S(=O)(=O)N2CCCC3(CCCCC3)C2)c(C)n1 [CBK282756],119.679%
12,O=C(c1ncccc1O)N1CC(O)CC1c1cc(F)ccc1F (stereo not shown) [CBK306452],111.228%
13,O=C(c1cc(F)c(F)cc1F)N1CCC2(CCCNC2)C1 (stereo not shown) [CBK137068T],100.134%
14,COc1ccc(-c2ccc(CCC(=O)O)n2NC(N)=S)cc1 [CBK266018],222.554%
15,O=C(NCc1sccc1Cl)Nc1cccc(Cl)c1 [CBK057110],102.677%
16,NS(=O)(=O)c1ccc(N2C(=O)C(O)=C(C(=O)c3ccc(Cl)cc3)C2c2ccc([N+](=O)[O-])cc2)cc1 (stereo not shown) [CBK263758],100%
17,CCOC(=O)c1ccccc1NC(=O)N[C@@H]1CC[C@@]2(c3ccc(OC)c(OC)c3)CCN(C)[C@H]2C1 [CBK047494T],93.5405%
18,O=C1/C(=N\Nc2ccc([N+](=O)[O-])cc2[N+](=O)[O-])c2ccccc2N1CN1CCCCC1 [CBK260926],111.778%
19,Cc1ccc2oc(-c3cc(NC(=O)Cn4cnc5c(=O)n(C)c(=O)n(C)c54)ccc3O)nc2c1 [CBK267112],130.369%
20,O=C(Cn1cc(C(=O)NCc2ccccc2)ccc1=O)Nc1cc(F)ccc1N1CCCC1 [CBK285998],120.559%
21,CC(C)(C)OC(=O)N1CCC(COc2ccc(-c3ccncc3)cn2)CC1 [CBK161777],111.769%
22,Cc1cc(C)c(C)c(S(=O)(=O)NCCN2CCCCC2CO)c1C (stereo not shown) [CBK307333],121.432%
23,CCn1c2ccccc2c2cc(Nc3cc(-c4cccc5ccccc45)ncn3)ccc21 [CBK090834],108.909%
24,S=c1[nH]nc(Cn2ccc(-c3ccccc3)n2)o1 [CBK022019],74.6736%

# A draw from above in order of length of the SMILES, falling.
row,SMILES,% of control remaining
17,CCOC(=O)c1ccccc1NC(=O)N[C@@H]1CC[C@@]2(c3ccc(OC)c(OC)c3)CCN(C)[C@H]2C1 [CBK047494T],93.5405%
3,Cc1ccc(NC(=O)CN(c2ccccc2)S(=O)(=O)c2ccccc2[N+](=O)[O-])cc1C [CBK262345],101.176%
5,c1coc(COc2cncc(N3CCNCC3)n2)c1 [CBK013393],136.411%
